Experimental data taken from the M2OR odorant receptor database.
Positions count from the first letter of the chain named. The list shows a part of the results, in another mix than the full data. The calls were merged from several studies; some rest on single wells. This is one part of the list.

Chains of the proteins cited; added tags and fusions are not shown. A line that says so, or that is headed by a name, gives the form on record, which may keep a tag or linker.
OR2J2, as listed by the source: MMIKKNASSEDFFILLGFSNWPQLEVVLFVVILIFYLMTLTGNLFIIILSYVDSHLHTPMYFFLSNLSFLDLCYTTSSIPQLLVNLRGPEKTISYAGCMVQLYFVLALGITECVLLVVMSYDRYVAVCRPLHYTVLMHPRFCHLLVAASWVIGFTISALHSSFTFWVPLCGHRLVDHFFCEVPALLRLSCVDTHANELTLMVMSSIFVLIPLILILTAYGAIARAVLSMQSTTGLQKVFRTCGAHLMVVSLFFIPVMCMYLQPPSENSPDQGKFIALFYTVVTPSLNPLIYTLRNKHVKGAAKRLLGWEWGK
OR2H2, as listed by the source: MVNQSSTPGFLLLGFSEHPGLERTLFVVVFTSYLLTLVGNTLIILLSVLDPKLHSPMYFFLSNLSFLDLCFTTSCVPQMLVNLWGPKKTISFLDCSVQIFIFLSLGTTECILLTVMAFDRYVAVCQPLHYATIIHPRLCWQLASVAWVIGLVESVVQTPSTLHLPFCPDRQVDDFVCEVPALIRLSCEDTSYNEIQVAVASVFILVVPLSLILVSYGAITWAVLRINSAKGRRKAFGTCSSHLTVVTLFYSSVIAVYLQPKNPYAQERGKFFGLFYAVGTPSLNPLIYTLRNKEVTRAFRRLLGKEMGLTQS

Legend:
Conditions in all cases: stereoisomer not certain
OR2H2 (Homo sapiens) = molecular target: T1, OR2H2 (Homo sapiens) (UniProt O95918)
T1 sequence (whole entry): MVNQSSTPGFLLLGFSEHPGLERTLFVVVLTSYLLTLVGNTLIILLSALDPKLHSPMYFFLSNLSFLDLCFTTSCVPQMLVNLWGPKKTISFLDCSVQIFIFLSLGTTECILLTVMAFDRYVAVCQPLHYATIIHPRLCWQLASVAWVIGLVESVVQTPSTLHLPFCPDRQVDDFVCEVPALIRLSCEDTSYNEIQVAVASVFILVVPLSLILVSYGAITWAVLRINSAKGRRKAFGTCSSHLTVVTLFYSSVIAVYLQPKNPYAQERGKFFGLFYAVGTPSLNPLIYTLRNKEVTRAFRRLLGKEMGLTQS
Method in brief: (§1)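 Assay methods differ from source to source, frequently being transient luciferase assays in mammalian cell lines. For each receptor–molecule pair, the label responsive (active) applies when the original authors judged the measured signal statistically different from baseline, and non-responsive (inactive) applies otherwise.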

OR2J2 (Homo sapiens) = molecular target: T2, OR2J2 (Homo sapiens) (UniProt O76002)
T2 sequence (whole entry): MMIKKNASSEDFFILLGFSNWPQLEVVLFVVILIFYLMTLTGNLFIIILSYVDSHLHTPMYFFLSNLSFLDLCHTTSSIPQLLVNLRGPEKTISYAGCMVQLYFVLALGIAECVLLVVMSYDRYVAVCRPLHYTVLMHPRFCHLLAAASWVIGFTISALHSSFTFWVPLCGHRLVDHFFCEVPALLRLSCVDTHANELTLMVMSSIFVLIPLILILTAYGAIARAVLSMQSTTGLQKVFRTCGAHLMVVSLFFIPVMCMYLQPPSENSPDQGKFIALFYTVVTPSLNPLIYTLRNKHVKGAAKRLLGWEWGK
Method in brief: as §1

OR2F2 = test system: T3, OR2F2
T3 sequence (whole entry): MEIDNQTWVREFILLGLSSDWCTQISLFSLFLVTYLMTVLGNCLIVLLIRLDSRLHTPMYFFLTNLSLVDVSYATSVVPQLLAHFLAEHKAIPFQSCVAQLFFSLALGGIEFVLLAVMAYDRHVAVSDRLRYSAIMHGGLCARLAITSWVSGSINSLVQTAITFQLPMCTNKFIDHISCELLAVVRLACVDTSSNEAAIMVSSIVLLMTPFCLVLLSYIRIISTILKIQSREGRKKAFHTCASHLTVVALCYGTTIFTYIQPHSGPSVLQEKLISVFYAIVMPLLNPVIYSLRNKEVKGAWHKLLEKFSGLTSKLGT
Method in brief: as §1

OR2G2 [1] = test system: T4, OR2G2
T4 sequence (whole entry): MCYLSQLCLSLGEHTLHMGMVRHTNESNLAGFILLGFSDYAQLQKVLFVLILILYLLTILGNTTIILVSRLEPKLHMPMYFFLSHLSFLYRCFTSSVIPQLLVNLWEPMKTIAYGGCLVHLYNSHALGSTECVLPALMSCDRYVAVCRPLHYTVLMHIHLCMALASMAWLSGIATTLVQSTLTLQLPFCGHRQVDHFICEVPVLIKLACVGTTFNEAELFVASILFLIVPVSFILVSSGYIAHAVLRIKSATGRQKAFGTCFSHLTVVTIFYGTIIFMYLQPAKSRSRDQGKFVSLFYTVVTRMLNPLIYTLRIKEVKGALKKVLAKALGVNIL
Method in brief: as §1

OR2G2 [2] = test system: T5, OR2G2; remark: listed apart in the source
T5 sequence (whole entry): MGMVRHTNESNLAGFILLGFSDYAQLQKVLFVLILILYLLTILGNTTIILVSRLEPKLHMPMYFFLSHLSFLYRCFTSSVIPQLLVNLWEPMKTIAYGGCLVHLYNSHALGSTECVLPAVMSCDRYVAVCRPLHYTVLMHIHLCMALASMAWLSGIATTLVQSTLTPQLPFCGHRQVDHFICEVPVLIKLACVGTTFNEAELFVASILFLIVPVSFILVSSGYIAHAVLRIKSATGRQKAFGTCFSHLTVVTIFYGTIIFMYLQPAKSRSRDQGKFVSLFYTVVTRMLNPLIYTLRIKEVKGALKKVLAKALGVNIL
Method in brief: as §1

OR2G3 (Homo sapiens) = molecular target: T6, OR2G3 (Homo sapiens) (UniProt Q8NGZ4)
T6 sequence (whole entry): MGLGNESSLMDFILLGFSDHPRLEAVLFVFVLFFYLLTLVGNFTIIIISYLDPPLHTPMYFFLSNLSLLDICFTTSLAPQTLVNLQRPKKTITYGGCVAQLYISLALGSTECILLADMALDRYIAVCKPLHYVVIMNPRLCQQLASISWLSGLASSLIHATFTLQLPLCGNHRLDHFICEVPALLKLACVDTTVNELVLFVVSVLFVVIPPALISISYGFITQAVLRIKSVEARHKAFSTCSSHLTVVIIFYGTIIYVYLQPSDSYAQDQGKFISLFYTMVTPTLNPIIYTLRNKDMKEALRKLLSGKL
Method in brief: as §1

OR2G3 = test system: T7, OR2G3
T7 sequence (whole entry): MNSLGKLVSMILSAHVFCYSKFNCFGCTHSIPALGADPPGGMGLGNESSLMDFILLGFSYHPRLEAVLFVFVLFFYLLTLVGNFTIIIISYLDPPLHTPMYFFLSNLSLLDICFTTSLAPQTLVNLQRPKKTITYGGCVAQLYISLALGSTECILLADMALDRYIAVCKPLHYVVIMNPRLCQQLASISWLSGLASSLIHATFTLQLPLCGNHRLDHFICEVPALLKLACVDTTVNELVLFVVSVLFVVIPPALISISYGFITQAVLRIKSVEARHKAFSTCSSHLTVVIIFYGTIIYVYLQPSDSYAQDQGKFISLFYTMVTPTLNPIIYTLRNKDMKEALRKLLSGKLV
Method in brief: as §1

OR2G6 (Homo sapiens) = molecular target: T8, OR2G6 (Homo sapiens) (UniProt Q5TZ20)
T8 sequence (whole entry): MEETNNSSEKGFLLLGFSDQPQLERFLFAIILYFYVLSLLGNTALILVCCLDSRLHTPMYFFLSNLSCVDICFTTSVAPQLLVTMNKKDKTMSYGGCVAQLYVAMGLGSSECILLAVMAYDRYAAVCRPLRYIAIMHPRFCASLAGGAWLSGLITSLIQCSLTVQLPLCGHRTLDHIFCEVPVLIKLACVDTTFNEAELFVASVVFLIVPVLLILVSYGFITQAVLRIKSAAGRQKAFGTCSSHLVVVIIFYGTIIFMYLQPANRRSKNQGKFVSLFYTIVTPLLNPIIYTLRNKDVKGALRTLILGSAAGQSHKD
Method in brief: as §1

OR2H1 (Homo sapiens) = molecular target: T9, OR2H1 (Homo sapiens) (UniProt Q9GZK4)
T9 sequence (whole entry): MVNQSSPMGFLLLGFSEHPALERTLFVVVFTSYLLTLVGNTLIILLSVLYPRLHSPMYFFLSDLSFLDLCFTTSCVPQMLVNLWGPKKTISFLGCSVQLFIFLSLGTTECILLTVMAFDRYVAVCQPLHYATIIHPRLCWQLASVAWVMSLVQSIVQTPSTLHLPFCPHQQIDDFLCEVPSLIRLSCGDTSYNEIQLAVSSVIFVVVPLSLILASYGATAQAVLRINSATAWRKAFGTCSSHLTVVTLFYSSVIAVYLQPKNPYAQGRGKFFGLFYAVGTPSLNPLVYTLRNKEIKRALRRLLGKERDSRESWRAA
Method in brief: as §1

OR2H2 [3] = test system: T10, OR2H2
T10 sequence (whole entry): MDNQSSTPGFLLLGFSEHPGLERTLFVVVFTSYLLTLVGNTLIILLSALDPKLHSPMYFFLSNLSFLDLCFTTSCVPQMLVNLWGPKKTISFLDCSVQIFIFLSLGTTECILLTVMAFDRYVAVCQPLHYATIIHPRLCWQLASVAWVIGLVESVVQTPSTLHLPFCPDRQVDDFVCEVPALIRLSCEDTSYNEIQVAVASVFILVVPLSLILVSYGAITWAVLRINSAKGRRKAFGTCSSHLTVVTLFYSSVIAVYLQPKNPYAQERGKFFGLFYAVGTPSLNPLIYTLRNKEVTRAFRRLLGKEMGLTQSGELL
Method in brief: as §1

OR2H2 [4] = test system: T11, OR2H2; remark: listed apart in the source
T11 sequence (whole entry): T1 sequence (whole entry) with L30F, A48V
Method in brief: as §1

OR2J1 = test system: T12, OR2J1
T12 sequence (whole entry): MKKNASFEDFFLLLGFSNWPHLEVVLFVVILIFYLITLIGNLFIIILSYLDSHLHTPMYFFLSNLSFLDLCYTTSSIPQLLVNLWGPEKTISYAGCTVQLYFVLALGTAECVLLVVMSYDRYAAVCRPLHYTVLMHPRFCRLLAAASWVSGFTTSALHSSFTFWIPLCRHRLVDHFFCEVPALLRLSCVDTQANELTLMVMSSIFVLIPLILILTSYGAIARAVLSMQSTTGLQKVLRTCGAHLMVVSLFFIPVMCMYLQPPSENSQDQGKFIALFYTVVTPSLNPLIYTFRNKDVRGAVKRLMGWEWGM
Method in brief: as §1

OR2J2 [5] = test system: T13, OR2J2
T13 sequence (whole entry): T2 sequence (whole entry) with A218T
Method in brief: as §1

OR2J2 [6] = test system: T14, OR2J2; remark: listed apart in the source
T14 sequence (whole entry): T2 sequence (whole entry) with H74Y, A146V, A218T
Method in brief: as §1

OR2J2 [7] = test system: T15, OR2J2; remark: listed apart in the source
T15 sequence (whole entry): T2 sequence (whole entry) with H74Y, A111T, A146V
Method in brief: as §1

OR2J3 (Homo sapiens) = molecular target: T16, OR2J3 (Homo sapiens) (UniProt O76001)
T16 sequence (whole entry): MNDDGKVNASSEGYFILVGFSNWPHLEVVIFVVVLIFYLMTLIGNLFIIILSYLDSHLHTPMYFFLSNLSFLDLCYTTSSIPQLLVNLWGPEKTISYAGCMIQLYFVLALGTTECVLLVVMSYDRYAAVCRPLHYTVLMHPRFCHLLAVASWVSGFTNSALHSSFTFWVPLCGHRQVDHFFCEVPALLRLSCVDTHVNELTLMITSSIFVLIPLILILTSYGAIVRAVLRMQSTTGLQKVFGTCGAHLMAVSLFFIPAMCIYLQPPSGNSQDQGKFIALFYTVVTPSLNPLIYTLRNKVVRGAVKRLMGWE
Method in brief: as §1

Measured: odorant receptor agonist call

CCCCCCCCC=O
inactive: OR2J2 (Homo sapiens)
active: OR2H2 (Homo sapiens)

CC1=CCC(C(C)(C)O)CC1 (stereo not given)
active: OR2J3 (Homo sapiens)
not listed: OR2H2 (Homo sapiens)
inactive: all other assays above

CCCCCOC(C)=O
active: OR2F2 | OR2H2 [4] | OR2J2 [6]
not listed: OR2H2 (Homo sapiens)
inactive: all other assays above

CCCCCCC=O
active: OR2H2 (Homo sapiens)
inactive: OR2J2 (Homo sapiens)

COc1cc(C)ccc1O
active: OR2J2 [7] | OR2J3 (Homo sapiens)
not listed: OR2H2 (Homo sapiens)
inactive: all other assays above

CCCC(=O)O
not listed: OR2H2 (Homo sapiens)
inactive: all other assays above

C=C(C)C1CC=C(C)C(=O)C1 (stereo not given)
inactive: OR2J2 (Homo sapiens)

CC(=O)C(C)=O
active: OR2J3 (Homo sapiens)
not listed: OR2H2 (Homo sapiens)
inactive: all other assays above

CCCCCCOC(=O)CCC
active: OR2J3 (Homo sapiens)
not listed: OR2H2 (Homo sapiens)
inactive: all other assays above
